Assay results from patent US20230348487A1, “2-AMINOPYRIMIDINE COMPOUND AND PHARMACEUTICAL COMPOSITION THEREOF AND APPLICATION THEREOF” (GUANGZHOU SALUSTIER BIOSCIENCES CO., LTD., priority 2021, published 2023).
pIC50: −log10 of the molar value.

How the values were obtained:
Experiment in all cases: CCK-8 in vitro proliferation inhibition
Type in all cases: cell-based
[1] = system: human chronic myeloid leukemia cell line K562; conditions: 72 hours, read-out: Inhibitory activity (IC50) on cell proliferation, K562
Method: (§1) Cell lines: human chronic myeloid leukemia cell line K562, human acute myeloid leukemia cell line U937, human T lymphocyte leukemia cell line HuT78, and human T lymphoblastic lymphoma cell line Jurkat. Cells were purchased from the Chinese Academy of Sciences Stem Cell Bank or ATCC.
(§2) […] were cultured overnight and suspended cells were directly stimulated with drugs. […] Two repeats were set for each concentration, with a final volume of 200 μL. […] The absorbance values at 450 nm and 650 nm were measured using a microplate reader, and the increment Z (A450-A650) was derived. The inhibitory rate of drugs on cell growth was calculated by GraphPad Prism 8.0.0 through the following formula:
(§3) Inhibition rate (%)(ODcontrol−ODdosing)/ODcontrol×100%
(§4) The half inhibitory concentration (IC50) was calculated. Every experiment was repeated at least three times.

[2] = system: human T lymphoblastic lymphoma cell line Jurkat; conditions: 72 hours, read-out: Inhibitory activity (IC50) on cell proliferation, JURKAT
Method: as §1, §2, §3, §4

[3] = system: human T lymphocyte leukemia cell line HuT78; conditions: 72 hours, read-out: Inhibitory activity (IC50) on cell proliferation, HUT78
Method: as §1, §2, §3, §4

- pIC50 [1]: 4.66
- pIC50 [2]: < 4.52
- pIC50 [3]: < 4.52
SMILES: C[C@@H]1CCN(C(=O)CC#N)C[C@@H]1N(C)c1ncnc2[nH]ccc12 [Tofacitinib, reference compound]
